The values that follow come from publication PMC3119658.

By UniProt entry, the sequences of proteins in these tests, tags left out. Residues count along the entry.
UniProt P25445, residues 26-335: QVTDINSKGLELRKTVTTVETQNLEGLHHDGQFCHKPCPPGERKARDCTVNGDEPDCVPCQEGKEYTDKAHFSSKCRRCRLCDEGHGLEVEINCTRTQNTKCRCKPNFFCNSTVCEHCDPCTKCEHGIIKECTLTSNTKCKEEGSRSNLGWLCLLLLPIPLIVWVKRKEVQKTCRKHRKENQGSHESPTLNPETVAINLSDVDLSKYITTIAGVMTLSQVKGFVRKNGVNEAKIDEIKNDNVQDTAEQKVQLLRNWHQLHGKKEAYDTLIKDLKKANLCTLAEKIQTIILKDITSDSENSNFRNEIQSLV
UniProt P07947: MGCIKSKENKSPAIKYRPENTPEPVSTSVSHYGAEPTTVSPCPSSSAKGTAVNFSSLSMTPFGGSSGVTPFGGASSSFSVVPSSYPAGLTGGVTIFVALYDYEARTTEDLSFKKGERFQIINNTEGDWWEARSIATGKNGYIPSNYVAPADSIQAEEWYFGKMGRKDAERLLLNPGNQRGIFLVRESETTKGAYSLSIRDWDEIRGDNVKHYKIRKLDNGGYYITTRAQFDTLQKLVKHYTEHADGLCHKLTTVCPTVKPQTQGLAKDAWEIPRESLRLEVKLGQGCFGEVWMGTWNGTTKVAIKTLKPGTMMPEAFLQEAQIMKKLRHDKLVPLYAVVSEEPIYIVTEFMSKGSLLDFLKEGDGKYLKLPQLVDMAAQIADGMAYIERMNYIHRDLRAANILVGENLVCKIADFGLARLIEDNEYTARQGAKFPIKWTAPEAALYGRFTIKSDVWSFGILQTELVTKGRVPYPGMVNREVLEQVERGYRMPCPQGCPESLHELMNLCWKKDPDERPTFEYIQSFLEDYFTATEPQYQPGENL

The target of the assay is CD95 (human (endogenous in H9 and PBLs)) (UniProt P25445). As to the kind of experiment: co-IP; H9 T-cells and activated PBLs incubated with 100 ng/ml cl-CD95L (15 min, 4°C or 37°C), lysed, 1 µg APO1-3 added to the lysate, CD95 immunoprecipitated with protein A-sepharose beads; immunoblots. Background: In western blotting, separated proteins are transferred to a membrane and probed.

Results are given in words; binding and its absence hold for the method and conditions named. Binding seen in cells or lysates may run through a third protein. Some results given as binding are weak or reduced against the parent protein; the word gives no strength.

As for “tyrosine kinase c-yes (from UniProt P07947 1-543) (enzyme)”, the binding entry is reported as “binds”.
